# The other results are listed elsewhere or left out.
# B1: AntigenI/IIA3VP1 (Streptococcus mutans), C9E3B4 (protein)
# chain: AANEADYQAKLTAYQTELARVQKANADAKAAYEAAVAANNAANAALTAENTAIKKRNADAKADYEAKLAKYQADLAKYQKDLADYPVKLKAYEDEQASIKAALAELEKHKNEDGNLTEPSAQNLVYDLEPNANLSLTTDGKFLKASAVDDAFSKSTSKAKYDQKILQLDDLDITNLEQSNDVASSMELYGNFGDKAGWSTTVSNNSQVKWGSVLLERGQSATATYTNLQNSYYNGKKISKIVYKYTVDPKSKFQGQKVWLGIFTDPTLGVFASAYTGQVEKNTSIFIKNEFTFYDEDGKPINFDNALLSVASLNREHNSIEMAKDYSGKFVKISGSSIGEKNGMIYATDTLNFKQGEGGSRWTMYKNSQAGSGWDSSDAPNSWYGAGAIKMSGPNNYVTVGATSATNVMPVSDMPVVPGKDNTDGKKPNIWYSLNGKIRAVNVPKVTKEKPTPPVKPTAPTKPTYETEKPLKPAPVAPNYEKEPTPPTRLEHHHHHH
# Columns and labels:
# Assay in all cases: glycan array binding signal (z-score within array); higher = stronger binding
# Conditions in all cases: glycan notation: IUPAC condensed, linker removed
# Neu5Ac(a2-3)GalNAc = molecular target: Neu5Ac(a2-3)GalNAc
# Summary of the method: (§1)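 Glycan array data came from 3228 arrays in the Consortium for Functional Glycomics database, and only arrays with an available protein sequence were kept. Glycan names were put into IUPAC-condensed notation, and columns mapping to the same glycan were averaged. The binding signal is a within-array Z-score, averaged across arrays of one protein sequence run at different concentrations or buffers and across linkers. A negative Z-score can be read as non-binding.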
# [1] = molecular target: Neu5Ac(a2-3)GalNAc(b1-4)GlcNAc
# Summary of the method: as §1
# [2] = molecular target: Neu5Ac(a2-3)[GalNAc(b1-4)]Gal(b1-4)Glc
# Summary of the method: as §1
# [3] = molecular target: Neu5Ac(a2-3)[GalNAc(b1-4)]Gal(b1-4)GlcNAc
# Summary of the method: as §1
# [4] = molecular target: Neu5Ac(a2-3)[GalNAc(b1-4)]Gal(b1-4)GlcNAc(b1-3)GalNAc
# Summary of the method: as §1
# [5] = molecular target: Neu5Ac(a2-3)[Neu5Ac(a2-6)]GalNAc
# Summary of the method: as §1
# Neu5Ac(a2-6)Gal = molecular target: Neu5Ac(a2-6)Gal
# Summary of the method: as §1
# [6] = molecular target: Neu5Ac(a2-6)Gal(b1-3)GlcNAc(b1-3)[Gal(b1-4)GlcNAc(b1-6)]Gal(b1-4)Glc
# Summary of the method: as §1
# Neu5Ac(a2-6)Gal(b1-4)Glc = molecular target: Neu5Ac(a2-6)Gal(b1-4)Glc
# Summary of the method: as §1
# [7] = molecular target: Neu5Ac(a2-6)Gal(b1-4)GlcNAc
# Summary of the method: as §1
# [8] = molecular target: Neu5Ac(a2-6)Gal(b1-4)GlcNAc(b1-2)Man
# Summary of the method: as §1
# [9] = molecular target: Neu5Ac(a2-6)Gal(b1-4)GlcNAc(b1-2)Man(a1-3)Man(b1-4)GlcNAc(b1-4)GlcNAc
# Summary of the method: as §1
# [10] = molecular target: Neu5Ac(a2-6)Gal(b1-4)GlcNAc(b1-2)Man(a1-3)[Gal(b1-4)GlcNAc(b1-2)Man(a1-6)]Man(b1-4)GlcNAc(b1-4)GlcNAc
# Summary of the method: as §1
# [11] = molecular target: Neu5Ac(a2-6)Gal(b1-4)GlcNAc(b1-2)Man(a1-3)[GlcNAc(b1-2)Man(a1-6)]Man(b1-4)GlcNAc(b1-4)GlcNAc
# Summary of the method: as §1
# [12] = molecular target: Neu5Ac(a2-6)Gal(b1-4)GlcNAc(b1-2)Man(a1-3)[GlcNAc(b1-4)][Neu5Ac(a2-6)Gal(b1-4)GlcNAc(b1-2)Man(a1-6)]Man(b1-4)GlcNAc(b1-4)GlcNAc
# Summary of the method: as §1
# [13] = molecular target: Neu5Ac(a2-6)Gal(b1-4)GlcNAc(b1-2)Man(a1-3)[Man(a1-6)]Man(b1-4)GlcNAc(b1-4)GlcNAc
# Summary of the method: as §1
# [14] = molecular target: Neu5Ac(a2-6)Gal(b1-4)GlcNAc(b1-2)Man(a1-3)[Neu5Ac(a2-3)Gal(b1-4)GlcNAc(b1-2)Man(a1-6)]Man(b1-4)GlcNAc(b1-4)GlcNAc
# Summary of the method: as §1
# [15] = molecular target: Neu5Ac(a2-6)Gal(b1-4)GlcNAc(b1-2)Man(a1-3)[Neu5Ac(a2-6)Gal(b1-4)GlcNAc(b1-2)Man(a1-6)]Man(b1-4)GlcNAc(b1-4)GlcNAc
# Summary of the method: as §1
# [16] = molecular target: Neu5Ac(a2-6)Gal(b1-4)GlcNAc(b1-2)Man(a1-3)[Neu5Ac(a2-6)Gal(b1-4)GlcNAc(b1-2)Man(a1-6)]Man(b1-4)GlcNAc(b1-4)[Fuc(a1-6)]GlcNAc
# Summary of the method: as §1
# [17] = molecular target: Neu5Ac(a2-6)Gal(b1-4)GlcNAc(b1-2)Man(a1-6)Man(b1-4)GlcNAc(b1-4)GlcNAc
# Summary of the method: as §1
# [18] = molecular target: Neu5Ac(a2-6)Gal(b1-4)GlcNAc(b1-2)Man(a1-6)[Gal(b1-4)GlcNAc(b1-2)Man(a1-3)]Man(b1-4)GlcNAc(b1-4)GlcNAc
# Summary of the method: as §1
# [19] = molecular target: Neu5Ac(a2-6)Gal(b1-4)GlcNAc(b1-2)Man(a1-6)[GlcNAc(b1-2)Man(a1-3)]Man(b1-4)GlcNAc(b1-4)GlcNAc
# Summary of the method: as §1
# [20] = molecular target: Neu5Ac(a2-6)Gal(b1-4)GlcNAc(b1-2)Man(a1-6)[Man(a1-3)]Man(b1-4)GlcNAc(b1-4)GlcNAc
# Summary of the method: as §1
# [21] = molecular target: Neu5Ac(a2-6)Gal(b1-4)GlcNAc(b1-2)[Neu5Ac(a2-6)Gal(b1-4)GlcNAc(b1-4)]Man(a1-3)[GlcNAc(b1-4)][Neu5Ac(a2-6)Gal(b1-4)GlcNAc(b1-2)[Neu5Ac(a2-6)Gal(b1-4)GlcNAc(b1-6)]Man(a1-6)]Man(b1-4)GlcNAc(b1-4)GlcNAc
# Summary of the method: as §1
# [22] = molecular target: Neu5Ac(a2-6)Gal(b1-4)GlcNAc(b1-2)[Neu5Ac(a2-6)Gal(b1-4)GlcNAc(b1-4)]Man(a1-3)[GlcNAc(b1-4)][Neu5Ac(a2-6)Gal(b1-4)GlcNAc(b1-4)Man(a1-6)]Man(b1-4)GlcNAc(b1-4)GlcNAc
# Summary of the method: as §1
# [23] = molecular target: Neu5Ac(a2-6)Gal(b1-4)GlcNAc(b1-2)[Neu5Ac(a2-6)Gal(b1-4)GlcNAc(b1-6)]Man(a1-6)[Neu5Ac(a2-6)Gal(b1-4)GlcNAc(b1-2)Man(a1-3)][GlcNAc(b1-4)]Man(b1-4)GlcNAc(b1-4)GlcNAc
# Summary of the method: as §1
# [24] = molecular target: Neu5Ac(a2-6)Gal(b1-4)GlcNAc(b1-3)Gal(b1-3)GlcNAc
# Summary of the method: as §1
# [25] = molecular target: Neu5Ac(a2-6)Gal(b1-4)GlcNAc(b1-3)Gal(b1-4)GlcNAc
# Summary of the method: as §1
# [26] = molecular target: Neu5Ac(a2-6)Gal(b1-4)GlcNAc(b1-3)Gal(b1-4)GlcNAc(b1-2)Man(a1-3)[Neu5Ac(a2-6)Gal(b1-4)GlcNAc(b1-3)Gal(b1-4)GlcNAc(b1-2)Man(a1-6)]GalNAc
# Summary of the method: as §1
# [27] = molecular target: Neu5Ac(a2-6)Gal(b1-4)GlcNAc(b1-3)Gal(b1-4)GlcNAc(b1-3)Gal(b1-4)GlcNAc
# Summary of the method: as §1
# [28] = molecular target: Neu5Ac(a2-6)Gal(b1-4)GlcNAc(b1-3)Gal(b1-4)GlcNAc(b1-3)Gal(b1-4)GlcNAc(b1-2)Man(a1-3)[Neu5Ac(a2-6)Gal(b1-4)GlcNAc(b1-3)Gal(b1-4)GlcNAc(b1-3)Gal(b1-4)GlcNAc(b1-2)Man(a1-6)]GalNAc
# Summary of the method: as §1
# [29] = molecular target: Neu5Ac(a2-6)Gal(b1-4)GlcNAc(b1-3)Gal(b1-4)GlcNAc(b1-3)GalNAc
# Summary of the method: as §1
# [30] = molecular target: Neu5Ac(a2-6)Gal(b1-4)GlcNAc(b1-3)Gal(b1-4)GlcNAc(b1-3)[Neu5Ac(a2-6)Gal(b1-4)GlcNAc(b1-3)Gal(b1-4)GlcNAc(b1-6)]GalNAc
# Summary of the method: as §1
# [31] = molecular target: Neu5Ac(a2-6)Gal(b1-4)GlcNAc(b1-3)Gal(b1-4)GlcNAc(b1-6)[Gal(b1-3)]GalNAc
# Summary of the method: as §1
# [32] = molecular target: Neu5Ac(a2-6)Gal(b1-4)GlcNAc(b1-3)Gal(b1-4)[Fuc(a1-3)]GlcNAc(b1-3)Gal(b1-4)[Fuc(a1-3)]GlcNAc
# Summary of the method: as §1
# [33] = molecular target: Neu5Ac(a2-6)Gal(b1-4)GlcNAc(b1-3)GalNAc
# Summary of the method: as §1
# [34] = molecular target: Neu5Ac(a2-6)Gal(b1-4)GlcNAc(b1-3)[Neu5Ac(a2-6)Gal(b1-4)GlcNAc(b1-6)]GalNAc
# Summary of the method: as §1
# [35] = molecular target: Neu5Ac(a2-6)Gal(b1-4)GlcNAc(b1-6)GalNAc
# Summary of the method: as §1
# [36] = molecular target: Neu5Ac(a2-6)Gal(b1-4)GlcNAc(b1-6)[Gal(b1-3)GlcNAc(b1-3)]Gal(b1-4)Glc
# Summary of the method: as §1
# [37] = molecular target: Neu5Ac(a2-6)Gal(b1-4)GlcNAc(b1-6)[Gal(b1-3)]GalNAc
# Summary of the method: as §1
# [38] = molecular target: Neu5Ac(a2-6)Gal(b1-4)GlcNAc6S
# Summary of the method: as §1
# Neu5Ac(a2-6)GalNAc = molecular target: Neu5Ac(a2-6)GalNAc
# Summary of the method: as §1
# [39] = molecular target: Neu5Ac(a2-6)GalNAc(b1-4)GlcNAc
# Summary of the method: as §1
# [40] = molecular target: Neu5Ac(a2-6)GalNAc(b1-4)GlcNAc6S
# Summary of the method: as §1
# [41] = molecular target: Neu5Ac(a2-6)GlcNAc(b1-4)GlcNAc
# Summary of the method: as §1
binder,measurement,setting,value
B1,glycan array binding signal (z-score),Neu5Ac(a2-3)GalNAc,-1.05
same,glycan array binding signal (z-score),[1],-0.789
same,glycan array binding signal (z-score),[2],-0.636
same,glycan array binding signal (z-score),[3],-0.45
same,glycan array binding signal (z-score),[4],0.844
same,glycan array binding signal (z-score),[5],0.222
same,glycan array binding signal (z-score),Neu5Ac(a2-6)Gal,-1.55
same,glycan array binding signal (z-score),[6],0.439
same,glycan array binding signal (z-score),Neu5Ac(a2-6)Gal(b1-4)Glc,-0.114
same,glycan array binding signal (z-score),[7],-0.452
same,glycan array binding signal (z-score),[8],-0.522
same,glycan array binding signal (z-score),[9],-0.245
same,glycan array binding signal (z-score),[10],0.157
same,glycan array binding signal (z-score),[11],-0.928
same,glycan array binding signal (z-score),[12],-0.618
same,glycan array binding signal (z-score),[13],0.484
same,glycan array binding signal (z-score),[14],0.381
same,glycan array binding signal (z-score),[15],-0.329
same,glycan array binding signal (z-score),[16],1.67
same,glycan array binding signal (z-score),[17],-0.28
same,glycan array binding signal (z-score),[18],-1.05
same,glycan array binding signal (z-score),[19],-0.891
same,glycan array binding signal (z-score),[20],-1.13
same,glycan array binding signal (z-score),[21],-0.286
same,glycan array binding signal (z-score),[22],1.05
same,glycan array binding signal (z-score),[23],0.993
same,glycan array binding signal (z-score),[24],-1.1
same,glycan array binding signal (z-score),[25],-0.214
same,glycan array binding signal (z-score),[26],-0.823
same,glycan array binding signal (z-score),[27],-1.17
same,glycan array binding signal (z-score),[28],1.74
same,glycan array binding signal (z-score),[29],-0.349
same,glycan array binding signal (z-score),[30],0.793
same,glycan array binding signal (z-score),[31],0.306
same,glycan array binding signal (z-score),[32],0.247
same,glycan array binding signal (z-score),[33],0.206
same,glycan array binding signal (z-score),[34],-1.08
same,glycan array binding signal (z-score),[35],0.255
same,glycan array binding signal (z-score),[36],-0.28
same,glycan array binding signal (z-score),[37],-1.32
same,glycan array binding signal (z-score),[38],1.06
same,glycan array binding signal (z-score),Neu5Ac(a2-6)GalNAc,-0.371
same,glycan array binding signal (z-score),[39],-1.17
same,glycan array binding signal (z-score),[40],-0.77
same,glycan array binding signal (z-score),[41],-0.598

# Taken from the listing for reference:
binder,measurement,setting,value
B1,glycan array binding signal (z-score),[32],0.247
same,glycan array binding signal (z-score),[33],0.206

# Retrieved one by one from the list above, 2 records:
binder,measurement,setting,value
B1,glycan array binding signal (z-score),[15],-0.329
same,glycan array binding signal (z-score),[8],-0.522

# — the supplement of paper PMC8728848
